Earlier results in paper PMC9298182, “De novo design of type II topoisomerase inhibitors as potential antimicrobial agents targeting a novel binding region” (RSC Medicinal Chemistry, 2022).

Conditions: development terminated; cited from earlier work

In the case of `Cl.NCC(NC(=O)c1cccc(-c2cccs2)c1)c1ccc(O)cc1` (stereo not shown) [Compound 1], the in vivo toxicity is listed as “observed in vivo toxicity issues”.
